Laboratory results reported in PMC7761207, “Molecular Characterization of the Burkholderia cenocepacia dcw Operon and FtsZ Interactors as New Targets for Novel Antimicrobial Design” (Antibiotics, 2020).

Biological target: B. cenocepacia FtsZ, protein of the sedimentation assays (Burkholderia cenocepacia)
Assay: co-sedimentation; 25 mM PIPES pH 6.8, 10 mM MgCl2, 12 uM FtsZ, 12 uM ZipA or SulA, 2 mM GTP; 10 min 30 C; 350,000 x g 10 min 25 C; SDS-PAGE of pellet and supernatant; both purified

B1: putative SulA (pBCA006) of B. cenocepacia J2315, BACTH hybrid (natural protein, Burkholderia cenocepacia J2315, UniProt B4EQP0 1-238, looked up)
chain: MHPALAHPEAIHPALWRASQLARPSVRGVDTGHLELTAELPGGGWPAGALIELLAPQPGIGELRLLAPVLARTAGKPVMLIQPPHALQPLALAYWGIDPSGFVTLPAPRTADALWAAEQALRAGTCAAVLLWQSHVRADALRRLNLAAQSGQALFYLFRPVAAARDASPAPLRLALAPKRDGIDVTFLKRRGPARDTPLFVPLSPSPILLNRHASLDRRASAAPQPRSVPATIAGAVA
notes: putative SulA, product of gene pBCA006 of Burkholderia cenocepacia J2315; Cloned in all four BACTH vectors; source: bacterial two-hybrid (BACTH) fusion, E. coli BTH101
**Q.** With B1 as the binder, how does the binding read?
**A.** binds

These are yes or no findings as the source states them, for the method shown. Binding calls can cover weak binding; strength is not graded here. Tags and fused reporters may be left off the sequences shown.
